Results on four molecules are retold here after publication PMC12167491.

By UniProt entry, the sequences of proteins in these tests, tags left out.
UniProt Q96NA2: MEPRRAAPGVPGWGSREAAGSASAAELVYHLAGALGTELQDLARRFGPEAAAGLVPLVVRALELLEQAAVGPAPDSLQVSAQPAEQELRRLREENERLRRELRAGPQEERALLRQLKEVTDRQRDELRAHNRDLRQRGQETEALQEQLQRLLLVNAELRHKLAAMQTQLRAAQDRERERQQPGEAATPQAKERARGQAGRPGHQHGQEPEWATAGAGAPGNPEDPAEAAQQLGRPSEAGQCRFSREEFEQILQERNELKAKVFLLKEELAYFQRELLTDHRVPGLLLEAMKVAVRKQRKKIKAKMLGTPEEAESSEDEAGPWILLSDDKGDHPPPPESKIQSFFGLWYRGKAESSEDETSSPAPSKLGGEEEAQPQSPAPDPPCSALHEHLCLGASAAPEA
UniProt Q9NVJ2: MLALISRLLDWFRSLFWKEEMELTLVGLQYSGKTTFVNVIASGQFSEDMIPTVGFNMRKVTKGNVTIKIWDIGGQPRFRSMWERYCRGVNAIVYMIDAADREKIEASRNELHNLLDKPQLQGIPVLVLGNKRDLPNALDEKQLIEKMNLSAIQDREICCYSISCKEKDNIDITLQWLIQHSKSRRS
UniProt Q9H0B6: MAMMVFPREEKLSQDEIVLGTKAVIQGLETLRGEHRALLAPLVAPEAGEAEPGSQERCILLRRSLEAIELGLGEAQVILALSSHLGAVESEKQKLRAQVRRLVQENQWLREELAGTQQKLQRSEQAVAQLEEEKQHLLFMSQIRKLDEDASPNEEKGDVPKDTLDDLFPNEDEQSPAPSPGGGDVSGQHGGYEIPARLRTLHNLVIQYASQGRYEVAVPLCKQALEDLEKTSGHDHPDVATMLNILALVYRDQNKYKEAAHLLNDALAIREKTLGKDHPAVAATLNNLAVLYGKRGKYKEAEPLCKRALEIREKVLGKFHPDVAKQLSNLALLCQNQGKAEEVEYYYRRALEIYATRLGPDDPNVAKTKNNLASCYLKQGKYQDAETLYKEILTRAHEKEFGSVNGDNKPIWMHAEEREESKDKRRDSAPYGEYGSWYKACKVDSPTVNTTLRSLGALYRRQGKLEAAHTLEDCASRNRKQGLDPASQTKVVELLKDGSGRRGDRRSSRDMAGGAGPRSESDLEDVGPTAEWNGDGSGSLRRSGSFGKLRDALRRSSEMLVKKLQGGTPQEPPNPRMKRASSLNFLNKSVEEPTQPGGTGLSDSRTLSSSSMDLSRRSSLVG

These are yes or no findings as the source states them, for the method shown. In cells and extracts the contact can be indirect. Some entries that bind do so weakly or less than the wild type. For some of these results: Sequences can lack the tags named with a protein.

Assay [1] concerns the target Rab interacting lysosomal protein (RILP) (UniProt Q96NA2). In words: co-IP; RILP with ARL8B and KLC2, with or without oxidative stress (Figure S6); cells and constructs not shown; lysis buffer 50 mM Tris-HCl pH 7.5, 150 mM NaCl, 0.5% Triton X-100, 1 mM EDTA.
Assay [2] concerns the target T1, Annexin 1 (ANXA1) (human (endogenous in A549)) (UniProt P04083).
T1 sequence: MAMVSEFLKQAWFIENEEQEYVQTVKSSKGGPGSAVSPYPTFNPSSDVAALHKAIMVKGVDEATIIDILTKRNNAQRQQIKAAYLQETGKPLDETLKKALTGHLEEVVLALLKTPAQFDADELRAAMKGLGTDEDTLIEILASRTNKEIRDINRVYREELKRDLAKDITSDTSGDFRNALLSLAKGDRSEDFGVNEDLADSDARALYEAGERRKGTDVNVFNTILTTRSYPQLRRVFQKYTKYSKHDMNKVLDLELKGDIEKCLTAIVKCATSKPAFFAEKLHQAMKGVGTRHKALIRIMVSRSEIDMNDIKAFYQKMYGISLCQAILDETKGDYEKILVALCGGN
In words: co-IP; endogenous proteins in A549 cells, with or without tBHP (250 uM, 6 h); lysis buffer 50 mM Tris-HCl pH 7.5, 150 mM NaCl, 0.5% Triton X-100, 1 mM EDTA; protein A/G agarose, 4 C.

A further assay concerns the target T2, VPS22-MYC (UniProt Q96H20).
T2 sequence: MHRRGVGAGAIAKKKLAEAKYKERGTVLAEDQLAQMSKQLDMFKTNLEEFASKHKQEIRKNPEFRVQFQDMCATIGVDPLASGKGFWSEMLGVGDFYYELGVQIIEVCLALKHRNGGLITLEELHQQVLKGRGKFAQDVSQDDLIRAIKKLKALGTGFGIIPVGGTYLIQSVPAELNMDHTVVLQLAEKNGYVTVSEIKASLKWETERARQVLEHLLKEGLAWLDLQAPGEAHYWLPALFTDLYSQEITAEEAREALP
Kind of assay: co-IP; A549 cells transfected with VPS22-MYC, with or without ATE1 siRNA and tBHP (250 uM, 6 h); lysis buffer 50 mM Tris-HCl pH 7.5, 150 mM NaCl, 0.5% Triton X-100, 1 mM EDTA; protein A/G agarose, 4 C.

Regarding ARL8B (from UniProt Q9NVJ2 1-186), in assay [1], the binding result is listed as “binds”. For “Kinesin (KLC2) (from UniProt Q9H0B6 1-622)”, the binding entry in assay [1] is “binds”.

B1: VPS22 (SNF8), endogenous (protein, UniProt Q96H20 1-258)
chain: T2 sequence
Take B1: in assay [2], the binding entry is reported as “binds”.

B2: VPS36 (protein, UniProt Q86VN1 1-386)
chain: MDRFVWTSGLLEINETLVIQQRGVRIYDGEEKIKFDAGTLLLSTHRLIWRDQKNHECCMAILLSQIVFIEEQAAGIGKSAKIVVHLHPAPPNKEPGPFQSSKNSYIKLSFKEHGQIEFYRRLSEEMTQRRWENMPVSQSLQTNRGPQPGRIRAVGIVGIERKLEEKRKETDKNISEAFEDLSKLMIKAKEMVELSKSIANKIKDKQGDITEDETIRFKSYLLSMGIANPVTRETYGSGTQYHMQLAKQLAGILQVPLEERGGIMSLTEVYCLVNRARGMELLSPEDLVNACKMLEALKLPLRLRVFDSGVMVIELQSHKEEEMVASALETVSEKGSLTSEEFAKLVGMSVLLAKERLLLAEKMGHLCRDDSVEGLRFYPNLFMTQS
Turning to B2, in the assay with VPS22-MYC, the binding result was “binds”.
